Measured values: PMC7498585
These are yes or no findings as the source states them, for the method shown. Binding seen in cells or lysates may run through a third protein. Some results given as binding are weak or reduced against the parent protein; the word gives no strength. Where a sequence is shown, tags or fusion partners need not be part of it.

By UniProt entry, the sequences of proteins in these tests, tags left out.
UniProt Q9Y5K8: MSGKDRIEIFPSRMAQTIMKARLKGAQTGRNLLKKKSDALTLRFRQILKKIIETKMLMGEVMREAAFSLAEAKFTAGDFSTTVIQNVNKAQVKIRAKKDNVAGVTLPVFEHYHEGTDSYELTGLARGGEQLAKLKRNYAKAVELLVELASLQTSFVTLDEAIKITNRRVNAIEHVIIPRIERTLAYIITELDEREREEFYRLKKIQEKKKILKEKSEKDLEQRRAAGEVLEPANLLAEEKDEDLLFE

B1: EPS15 (epidermal growth factor receptor pathway substrate 15) (protein, UniProt P42566 1-896)
chain: MAAAAQLSLTQLSSGNPVYEKYYRQVDTGNTGRVLASDAAAFLKKSGLPDLILGKIWDLADTDGKGILNKQEFFVALRLVACAQNGLEVSLSSLNLAVPPPRFHDTSSPLLISGTSAAELPWAVKPEDKAKYDAIFDSLSPVNGFLSGDKVKPVLLNSKLPVDILGRVWELSDIDHDGMLDRDEFAVAMFLVYCALEKEPVPMSLPPALVPPSKRKTWVVSPAEKAKYDEIFLKTDKDMDGFVSGLEVREIFLKTGLPSTLLAHIWSLCDTKDCGKLSKDQFALAFHLISQKLIKGIDPPHVLTPEMIPPSDRASLQKNIIGSSPVADFSAIKELDTLNNEIVDLQREKNNVEQDLKEKEDTIKQRTSEVQDLQDEVQRENTNLQKLQAQKQQVQELLDELDEQKAQLEEQLKEVRKKCAEEAQLISSLKAELTSQESQISTYEEELAKAREELSRLQQETAELEESVESGKAQLEPLQQHLQDSQQEISSMQMKLMEMKDLENHNSQLNWCSSPHSILVNGATDYCSLSTSSSETANLNEHVEGQSNLESEPIHQESPARSSPELLPSGVTDENEVTTAVTEKVCSELDNNRHSKEEDPFNVDSSSLTGPVADTNLDFFQSDPFVGSDPFKDDPFGKIDPFGGDPFKGSDPFASDCFFRQSTDPFATSSTDPFSAANNSSITSVETLKHNDPFAPGGTVVAASDSATDPFASVFGNESFGGGFADFSTLSKVNNEDPFRSATSSSVSNVVITKNVFEETSVKSEDEPPALPPKIGTPTRPCPLPPGKRSINKLDSPDPFKLNDPFQPFPGNDSPKEKDPEIFCDPFTSATTTTNKEADPSNFANFSAYPSEEDMIEWAKRESEREEEQRLARLNQQEQEDLELAIALSKSEISEA

Legend:
DRAM1-FLAG (human) = target: T1, DRAM1-FLAG (human) (UniProt Q8N682); experiment: co-IP; RIPA lysates of DRAM1-overexpressing H1975 and A549 cells; anti-FLAG agarose beads, 4 °C overnight; Western blot for ATP6V1D and ATP6V0D
T1 sequence: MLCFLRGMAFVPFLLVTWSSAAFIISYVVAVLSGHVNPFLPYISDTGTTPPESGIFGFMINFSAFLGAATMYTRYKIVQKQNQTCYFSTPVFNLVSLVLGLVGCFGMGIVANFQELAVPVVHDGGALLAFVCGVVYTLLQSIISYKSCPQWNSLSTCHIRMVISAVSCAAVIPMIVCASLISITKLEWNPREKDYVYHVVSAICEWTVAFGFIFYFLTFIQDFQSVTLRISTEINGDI

3FLAG-DRAM1 (human) = target: T2, 3FLAG-DRAM1 (human) (UniProt Q8N682); experiment: co-IP; A549 cells transfected with different concentrations of 3FLAG-DRAM1 plasmid; the legend says co-IP with anti-EPS15 antibody, the methods say anti-FLAG agarose beads; RIPA lysate, 4 °C overnight; Western blot
T2 sequence: T1 sequence

Molecule | binding (DRAM1-FLAG (human)) | binding (3FLAG-DRAM1 (human))
V-ATP6V1D (from UniProt Q9Y5K8 1-247) | no binding | –
B1 | – | binds
